# Test results taken from PubChem BioAssay AID1487 (National Center for Advancing Translational Sciences (NCATS), 2009).
# Among all 200,000 compounds or so, about 25 (0.01%) were called active. The inconclusive results got no clear call from the source; some entries with a clear call stand among them for comparison. The call rests on the fitted dose curve; in most records, active means well fitted inhibition curve with a large enough effect in the signal ratio, with a control signal flat (not every such curve was filed as active); inconclusive means small, poorly fitted or top-dose-only effect, or effect the other way, or a change in a side signal; inactive means flat fitted curve, though single readings scatter; the % refers to the signal ratio. Potencies beside an inconclusive call are fits to weak or partial responses and may not hold up.
# Experiment: qHTS Assay for Modulators of Lamin A Splicing
# Details: HeLa LMNA splicing GFP/RFP minigene ratio, 48 h; ratio change, negative = inhibition: at 46.1 µM (top of the series) unless noted
# Procedure, shortened: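 Read-out is the ratio of GFP to DsRed2 object intensity, acquired by 488 nm laser-scanning cytometry on HeLa lamin A-EGFP minigene reporter cells. Compound incubation 48 hrs at 37 °C in Opti-MEM with 2% FBS; DMSO 0.5% final.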
# On the % scale 0 is the no-effect control and ±100 the full control effect; potency means the concentration at half of the fitted maximal effect.
SMILES,"ratio change, negative = inhibition",Potency
Cc1ccc(C(=O)N2CCC(Cc3ccccc3)CC2)cc1[N+](=O)[O-],inconclusive: -18.8% [at 46 µM],
Cc1ccc(CNCc2ccc3c(c2)n(C)c(=O)n3C)cc1,inconclusive: 33% [at 46 µM],
CC(Nc1ncnc2nc[nH]c12)c1ccccc1 (stereo not drawn),,"inconclusive: 35.5 µM [fluorescent, single point]"
CCc1ccc(C(CNC(=O)c2ccc3c(=O)n(-c4ccccc4F)c(=S)[nH]c3c2)N(C)C)cc1 (stereo not drawn),,"inconclusive: 14.1 µM [inhibitor, single point]"
CCOC(=O)C1(Cc2cccc(F)c2)CCN(C(=O)C2CCC2)CC1,inconclusive: 2.13% [at 46 µM],
Cc1ccc(NC(=O)c2ccc(F)c(S(=O)(=O)NCCc3ccccc3)c2)cc1F,inactive,
COc1ccc(NCC(=O)Nc2ccc(C#N)cc2)cc1Cl,inactive,
O=C(NCc1ccc(Cl)cc1)C(=O)NCC1OCCN1S(=O)(=O)c1ccc2c(c1)OCCO2 (stereo not drawn),inconclusive: -46.5%,
CCc1ccc(NC(=O)N2CCN(c3nnc(C)c4c(C)n(-c5ccc(Cl)cc5)nc34)CC2)cc1,inconclusive: -25.8% [at 46 µM],
Cc1ccc(NC(=O)C2=C(c3ccccc3)S(=O)(=O)CCS2(=O)=O)cc1,inconclusive: -38.1% [at 9.22 µM],
Cc1cc(-c2nn(-c3ccccc3F)cc2CNCCc2cnc[nH]2)c(C)s1,inconclusive: -7.62% [at 46 µM],
Cn1c(=O)[nH]c(=O)c2c1nc(Br)n2CCSc1nnnn1-c1ccccc1,inactive,
CCCC(=O)Nc1ccc(Cl)c(NC(=S)NC(=O)c2ccco2)c1,inactive,
C#CCN(C)CCCOc1ccc(Cl)cc1Cl,inactive,
O=C(Nc1cc(C(F)(F)F)ccc1N1CCOCC1)c1ccc(Br)o1,inconclusive: -1.18%,
CCOC(=O)c1ccc(N2C(=O)CC(Sc3nnc(C)s3)C2=O)cc1 (stereo not drawn),inactive,
C=CCn1c(=O)c2c3c(sc2n2c(Nc4ccc(OC)cc4)nnc12)CCCC3,inconclusive: 9.64%,
CC(C)(CO)Cc1cc(C(C)(C)C)c(O)c(C(C)(C)C)c1,,"inconclusive: 35.5 µM [cytotoxic, single point]"
Cc1cc(C)c(OCC(=O)Nc2nnc(-c3ccco3)o2)c(C)c1,inconclusive: 59.5% [at 46 µM],
Cc1ccc2nc(N/N=C\c3ccc([N+](=O)[O-])o3)nc(-c3ccccc3)c2c1,inconclusive: 35.8%,
N=c1n(CCO)c2ccccc2n1CCOc1ccccc1,inactive,

SMILES,"ratio change, negative = inhibition",Potency
C=C(C)COc1ccc(-c2[nH]ncc2-c2ccc(OC)c(OC)c2)c(O)c1,inconclusive: -29.2%,
Cc1nc2ccccc2c2oc(C(=O)N3CCN(C(=O)c4ccco4)CC3)cc12,inactive,
CCCCCCCCCCCCCCSCC(=O)O,inconclusive: 17.2%,
COc1ccc(NC(=O)/C(C#N)=C/c2ccc(OCc3ccccc3F)cc2)cc1,inactive,
Cc1[nH]c2ccccc2c1/C=N/NC(=O)c1cccc([N+](=O)[O-])c1,inconclusive: -12.3% [at 46 µM],
Cc1nc2cc3ccccc3cc2c(=O)[nH]1,inconclusive: 15.9% [at 46 µM],
CCn1nc(C(=O)Nc2ccc(S(=O)(=O)Nc3nccs3)cc2)c2ccccc2c1=O,inconclusive: -38.1%,
COc1nc(N2CCOCC2)nc(C)c1[N+](=O)[O-],inconclusive: 10.8%,
O=C(CN1CCN(S(=O)(=O)c2ccccc2F)CC1)Nc1ccccc1C(=O)c1ccccc1,inactive,
COc1ccc(C(=O)C2CCCN(C(=O)C3=CCCC3)C2)cc1OC (stereo not drawn),inconclusive: 17.8% [at 46 µM],
CCCCC(=O)OCc1cc(=O)n2nc(C3CC3)sc2n1,inactive,
COc1cc(NC(=O)COCc2cc(-c3ccc4c(c3)OCO4)on2)c(OC)cc1Cl,inactive,
C/C(=N\NC(=O)CNc1cccc(Cl)c1C)c1cccs1,inconclusive: 9.7% [at 46 µM],
O=[N+]([O-])c1cccc(C(=S)N2CCCC2)c1,inconclusive: 51.4% [at 46 µM],
CO/N=C(\C(=O)N[C@@H]1C(=O)N2C(C(=O)O)=C(CSc3nc(=O)c(O)nn3C)CSC12)c1csc(N)n1 (stereo partly drawn),inconclusive: -20.1%,
CCCN[C@@H](C)C(=O)Nc1c(C)csc1C(=O)OC,inactive,
CN1CC(=O)NC1=NC(=O)c1cc(F)c(F)cc1Cl,inactive,
CCc1cccc(NC(=O)Cn2c(=O)n(CC3CCC(C(=O)NC)CC3)c(=O)c3sccc32)c1 (stereo not drawn),inconclusive: -17.5% [at 46 µM],
CCc1ccc2oc(C(=O)NCc3ccncc3)c(C)c2c1,,"inconclusive: 35.5 µM [falling, single point]"
Cn1c(SCCC#N)nnc1-c1ccc(F)cc1,inactive,
O=C1CC(c2ccccc2)CC(O)=C1C=NCCN1CCN(Cc2ccccc2)CC1 (stereo not drawn),inconclusive: -23.8% [at 46 µM],

SMILES,"ratio change, negative = inhibition",Potency
CC12CCC(C(=O)n3c1nc1ccccc13)C2(C)C (stereo not drawn),,"inconclusive: 15.8 µM [falling, single point]"
COc1ccc(-c2noc(C3CCCN(C(=O)Nc4ccccc4)C3)n2)cc1 (stereo not drawn),inconclusive: 6.2% [at 46 µM],
Cc1ccc(CNC(=O)C2CCCN(c3nc4ccccc4n4cccc34)C2)cc1 (stereo not drawn),inconclusive: -26% [at 46 µM],
CC1=NN(c2nc(-c3ccc(C)cc3)cs2)C(=O)C1N=Nc1ccc(C(N)=O)cc1 (stereo not drawn),,"inconclusive: 3.55 µM [cytotoxic, partial curve]"
CSc1ccc(/C=C/C(=O)NC23CC4CC(CC(C4)C2)C3)cc1,inconclusive: -30.7%,
CC(C)COC(=S)Nc1ccccc1,inactive,
CCn1c(SCC(=O)N(C)C2CCS(=O)(=O)C2)nnc1-c1cccs1 (stereo not drawn),inconclusive: 2.24% [at 46 µM],
COc1ccc([C@@H]2C(C#N)=C(N)S[C@@H](c3ccccc3)[C@@H]2[N+](=O)[O-])cc1,inactive,
COc1ccc(CCn2c(C)cc(C(=O)CSc3nc(N)cc(=O)[nH]3)c2C)cc1,inactive,
CC(=O)c1ccc(NC(=O)C(C)OC(=O)c2ccc3c(c2)nc(C)n3-c2ccccc2)cc1 (stereo not drawn),inconclusive: 9.19%,
Cn1c(=O)c2c(ncn2CCO)n(C)c1=O,inconclusive: 11.5% [at 46 µM],
Fc1ccc(-c2csc(N3CCC(c4ccccc4)C3)n2)cc1 (stereo not drawn),inconclusive: -26%,
CC(C)COC(=O)c1cc(-c2ccc(/C=N/n3cnnc3)o2)ccc1Cl,inactive,
CC(=O)N1c2c(cc(Br)cc2S(=O)(=O)NCc2ccc3c(c2)OCO3)CC1C (stereo not drawn),inactive,
COc1ccc(OCc2ccc(-c3nc(C#N)c(NCc4ccc(F)cc4)o3)o2)cc1,inactive,
Cc1nc(N2CCCC2)ncc1C(=O)Nc1ccc(OC(F)(F)F)cc1,inconclusive: 26% [at 46 µM],
Cc1cccc(C(=O)NC(=S)NNC(=O)c2cccs2)c1,inconclusive: -43.2%,
CC(C)(C)C(=O)[C@@H]1[C@@H]2C(=O)N(Cc3ccccc3)C(=O)[C@@H]2[C@H]2c3ccccc3C=CN12,inconclusive: 7.53%,
COc1ccc(-c2cn3cccnc3n2)cc1NC(=O)c1ccccc1C(F)(F)F,inconclusive: -4.14% [at 46 µM],
CC(=O)Nc1cccc(-c2csc(Nc3ccccn3)n2)c1,inactive,
Nc1ncnc2c1ncn2[C@@H]1O[C@@H](CO)[C@H](O)[C@H]1O,,"inconclusive: 3.98 µM [inhibitor, partial curve]"

# Some values from the list:
# In ratio change, negative = inhibition, Fc1ccc(-c2csc(N3CCC(c4ccccc4)C3)n2)cc1 (stereo not drawn) has inconclusive: -26%
# In ratio change, negative = inhibition, COc1ccc([C@@H]2C(C#N)=C(N)S[C@@H](c3ccccc3)[C@@H]2[N+](=O)[O-])cc1 has inactive
# In Potency, Nc1ncnc2c1ncn2[C@@H]1O[C@@H](CO)[C@H](O)[C@H]1O has inconclusive: 3.98 µM [inhibitor, partial curve]
# In ratio change, negative = inhibition, CC(C)(C)C(=O)[C@@H]1[C@@H]2C(=O)N(Cc3ccccc3)C(=O)[C@@H]2[C@H]2c3ccccc3C=CN12 has inconclusive: 7.53%
# In ratio change, negative = inhibition, CCn1c(SCC(=O)N(C)C2CCS(=O)(=O)C2)nnc1-c1cccs1 (stereo not drawn) has inconclusive: 2.24% [at 46 µM]
# In ratio change, negative = inhibition, COc1ccc(CCn2c(C)cc(C(=O)CSc3nc(N)cc(=O)[nH]3)c2C)cc1 has inactive

# Additional results:

SMILES,"ratio change, negative = inhibition",Potency
COc1cc(NC(=S)Nc2ccc(Br)cc2Cl)c(OC)cc1Cl,inactive,
Cc1ccc2c(c1)C(O)(CC(=O)/C=C/C=C/c1ccccc1)C(=O)N2 (stereo not drawn),inactive,
Cc1ccc(C)c(OCC(=O)Nc2nonc2NC(=O)COc2cc(C)ccc2C)c1,inconclusive: 14%,
CCCCCN1CC(O)=C(c2nc3ccccc3[nH]2)C1=N,inconclusive: 11.8% [at 46 µM],
CN(C)c1cccc(C(=O)NNC(=S)NC2CC3CCC2C3)c1 (stereo not drawn),inconclusive: -7.19% [at 46 µM],
O=C(Cc1ccc(Nc2nc3ccc(Br)cc3[nH]2)cc1)NCCc1cccs1,,"inconclusive: 12.6 µM [falling, single point]"
Cc1ccc(-c2nc(C)sc2CC(=O)NCc2ccco2)cc1,inconclusive: 32.5%,
O=C(NNC(=O)C1CCN(S(=O)(=O)c2cccc(C(F)(F)F)c2)CC1)C1CC1,inconclusive: -22.1% [at 46 µM],
COc1ccc(CNc2cc(-c3ccccc3OC)ncn2)c(OC)c1,inconclusive: -3.41%,
CN(C)C(=O)COC(=O)/C=C/c1cn(-c2ccccc2)nc1-c1cccs1,inconclusive: -39.3% [at 46 µM],
Cc1ccc(NC(=O)c2c(C(=O)Nc3ccccc3)sc3nc(C)cc(=O)n23)cc1,inactive,
O=C(Nc1ccccc1)N1C2CCC1CC(O)(c1cccnc1)C2 (stereo not drawn),inactive,
CCSc1nc(O)cc(=O)n1CC,inactive,
Cc1ccc(NC(=O)c2cc(CN3CCOCC3)on2)cc1Cl,inactive,
Cc1ccc(C)n1-c1ccc(N2CCOCC2)c(Br)c1,inconclusive: 31.8%,
Cc1ccc(C(=O)NCC(=O)OCc2cc(=O)n3nc(C4CC4)sc3n2)cc1,inconclusive: 13.4% [at 46 µM],
O=c1c2ccccc2c(C=NCc2ccccn2)c(O)n1-c1ccccc1Cl,inconclusive: 8.55% [at 46 µM],
CCOP(=O)(OCC)C(Nc1cccc(C(F)(F)F)c1)c1ccc(C)cc1 (stereo not drawn),inconclusive: -16%,
COc1ccc(N/C=C\C(=O)c2ccc(C)cc2)cc1OC,inconclusive: -1.08% [at 46 µM],
COc1ccc(-c2nc3c(c4c2C[C@H](c2ccccc2)OC4)CN(S(=O)(=O)c2ccc(C#N)cc2)CC3)c(C)c1,inconclusive: -0.33% [at 9.22 µM],
